US7531544B2, “Xanthine phosphodiesterase V inhibitors” (Schering Corporation, priority 2000, dated 2009)
Some of these results come from one statement about several compounds together.

Test system: PDE VI
Assay: Enzyme selectivity, ratio of PDE VI IC50/PDE V IC50
Type: biochemical
Settings: higher ratio = more selective for PDE V relative to PDE VI; all numbers modified by the word "about"

## CCn1c(=O)c2c(nc(NC3CCOCC3)n2Cc2ccc(S(N)(=O)=O)c(Cl)c2)n(CC)c1=O [Compound 191]
  PDE VI/PDE V ratio (PDE VI IC50/PDE V IC50): > 140

## CCn1c(=O)c2c(nc(NC3CCOCC3)n2Cc2ccc(S(N)(=O)=O)c(Br)c2)n(CC)c1=O [Compound 190]
  PDE VI/PDE V ratio (PDE VI IC50/PDE V IC50): > 140
